# Experimental data published in PubChem BioAssay AID2523 (NMMLSC, 2010).
# The list shows a part of the results.
# Test: inhibitors of CD8+ T cell-vesicle binding, pilot screen, LFA-1/ICAM-1 modulator project, MLPCN validation set, flow cytometry (AID 2523)
# Conditions: 2C mouse CD8+ T cells, measured here: CD8+/vesicle+ event percentage, at 7 µM, stronger effect = lower value
row,Compound,double positive events [%]
1,CN(C(=O)Cc1ccc(Cl)c(Cl)c1)[C@@H]1CCCC[C@H]1N1CCCC1,62.6
